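Viability assay of Plasmodium falciparum sporozoites; the read-out is not stated. The concentration is filed as 10 mM, unlikely as a test dose, so the dose is not known. The record gives no direction; compounds that gave an IC50 in retests scored well above the rest, so higher reads as lower viability. Strong results were mostly tested again. About 34,000 compounds were tested under these conditions; 0.84% (about 280) showed 50% or more at least once.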

Values are the deposited “Percent Effect”, in %. The record does not define 0% and 100%; most values in the screen are far below 50% and negative numbers occur (in some assays of this library far below -100). This is an unselected part of the compounds tested. Two or more numbers in one place are separate tests of the same structure; such repeats can differ widely.

CCOCCn1c(=O)[nH]c2cc(C(=O)N(C)Cc3ccno3)ccc21 gave -11.61%. Result for Cc1ccc(C2CCCCCN2Cc2cn(C)nc2C)cc1 (stereo not given) was -16.2%. Cn1cc(NS(=O)(=O)c2ccc(C(F)(F)F)cc2)ccc1=O read 13.73%. With COc1cccc2c1OCC(NC(=O)NCCc1ccccn1)C2 (stereo not given) the screen gave 9.221%. Cc1ccccc1CN1CCCC1c1cccc(Nc2nccs2)n1 (stereo not given) read 8.47%.

With CCc1ccc(S(=O)(=O)N2Cc3c(CN(C)C)nn(C)c3C2)cc1.O=C(O)C(F)(F)F the screen gave 6.414%. Cc1noc(NC(=O)c2ccc(Br)cc2)n1 read 1.874%. COCCN1CC(O)CN(C(=O)c2cccc(C(F)(F)F)c2)CC1=O (stereo not given) read 16.62%. For Clc1snnc1CN1CCCCC1Cn1cccn1 (stereo not given) the result was 5.948%. Result for CCc1nccn1C1CCCN(C(=O)CCCNc2ncccn2)C1 (stereo not given) was -25.54%.

With Cc1cccc(C(=O)N2CCC[C@]3(C[C@@H](OCC4CC4)CO3)C2)n1.O=C(O)C(F)(F)F the screen gave -1.46%. For CC(=O)NC[C@]1(O)CCN(C(=O)c2ccc3c(c2)OCO3)C[C@H]1O the result was 4.017%. COCCN1CCC1c1cc(N)nc(C)n1 (stereo not given) gave 4.022%. With O=C(O)C(F)(F)F.O=C(O)C(F)(F)F.[H][C@]12C[C@H](C(=O)NCC3CC3)N(C)[C@@]1([H])CN(Cc1ccsc1)C2 the screen gave 3.43%. O=C(c1cc2cc(I)ccc2[nH]1)N1CCC(Nc2cccnn2)CC1 read 10.95%.

CCS(=O)(=O)Nc1ccc2c(c1)C1(CCOCC1)CN2C.O=C(O)C(F)(F)F gave 0.3376%. With Cc1cc(Oc2ccccc2C)nc(C2CCCN2)n1 (stereo not given) the screen gave 4.779%. Result for CC(O)CN1CCN(C(=O)c2ccc(N3CCCC3)nn2)CC1 (stereo not given) was -1.507%. Fc1ccc(-c2nnc(CN3CCOC(Cn4cncn4)C3)o2)cc1 (stereo not given) gave -9.321%. For Cn1ccc(CN2CCN(CC3CC3)CC2)cc1=O the result was -0.2701%.

Result for COCCn1ccc(NC(=O)Nc2ccccc2)n1 was 0.3195%. With CN(C)[C@@H]1CCN(C(=O)c2ccsc2)[C@H]1Cc1cccnc1.O=C(O)C(F)(F)F.O=C(O)C(F)(F)F the screen gave -9.536%. COc1ccc(CCNC2CCCN(c3ccc(C)nn3)C2)cc1 (stereo not given) gave -1.643%. COc1cccc(-c2noc(C3CCN(CC(N)=O)C3)n2)c1 (stereo not given) gave 17.62% and 54.21% and 74.94%. With COc1ccc(C(C(=O)O)N2CCC(Cn3cccn3)CC2)c(OC)n1 (stereo not given) the screen gave -10.53% and -28.57%.

Cc1nc(C)n(CC2CCCN(CCNC(=O)OC(C)(C)C)C2)n1 (stereo not given) gave -9.017%. Cc1ccc(N2CC[C@H](OCC3CC3)[C@@H]2Cc2cnn(C)c2)nn1 read 1.127%. Result for CSc1ccc(C(=O)N2CC(=O)N(Cc3cccs3)CC(O)C2)cc1 (stereo not given) was -46.32%. With CNS(=O)(=O)c1cc(C(=O)NC2CCOc3ccccc32)cc(C)c1C (stereo not given) the screen gave -21.53%. Result for O=C(O)C(F)(F)F.O=C(c1cscn1)N1CCC2(CCN(Cc3cccs3)CC2)C1 was -8%.

2 of the entries, repeated:

Compound,percent effect
Fc1ccc(-c2nnc(CN3CCOC(Cn4cncn4)C3)o2)cc1 (stereo not given),-9.321%
Cc1cccc(C(=O)N2CCC[C@]3(C[C@@H](OCC4CC4)CO3)C2)n1.O=C(O)C(F)(F)F,-1.46%

Measurements from “University of Dundee, Small-Polar-MMV Screening Library” (2021), ChEMBL document CHEMBL3988442.